Reference: PubChem BioAssay AID1259308 (NCATS, 2017)
Aim: 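Genes whose loss raises luciferase production in HEK293 cells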 (primary screen). Cells: human HEK293 embryonic kidney cells stably expressing firefly luciferase (HEK-CMV-Luc2-Hygro). Reagent: single siRNA against human genes, 0.8 pmol siRNA per well. Duration: 72 h. Read-out: 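Reporter luminescence and viable-cell signal on separate replicate plates, given as percent of non-targeting control and median/MAD z-scores, plus per-cell luciferase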. Reading the numbers: total luciferase, z-score: higher = more reporter protein produced. Active means: 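An siRNA counts as active if its total luciferase robust z-score exceeds 3; genes with two or more such siRNAs out of three were retested with fresh siRNAs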. Calls: active = raised luciferase; inactive = no rise.
The whole screen tested about 59,000 reagents; this is an unselected part. About 1,510 of all reagents (2.6%) count as active. 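Calls use total luciferase alone and ignore viability, so some active siRNAs may act by altering cell number.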 Entries without a mark were called inactive. Further read-outs or replicates are left out here.

total luciferase, z-score, by target gene and reagent
PPP2CB (protein phosphatase 2 catalytic subunit beta): SID160714786 1.55; SID160714787 0.821; SID160714788 0.477
COQ9 (coenzyme Q9): SID160745499 0.813; SID160745500 1.67; SID160745501 -0.228
KRTAP3-1 (keratin associated protein 3-1): SID160751522 0.619; SID160751523 -0.214; SID160751524 -0.418
RBM12B (RNA binding motif protein 12B): SID160766262 -0.577; SID160766263 -0.259; SID160766264 0.67
AMOTL1 (angiomotin like 1): SID160759452 0.646; SID160759453 -0.435; SID160759454 0.11
PPIP5K1 (diphosphoinositol pentakisphosphate kinase 1): SID160722779 0.0275; SID160722780 0.434; SID160722781 -1.24
WSCD2 (WSC domain sialate O sulfotransferase 2): SID160722767 -0.123; SID160722768 -0.434; SID160722769 0.101
ATP11B (ATPase phospholipid transporting 11B (putative)): SID160735700 -0.0059; SID160735701 0.132; SID160735702 1.29
TBC1D8B (TBC1 domain family member 8B): SID160742408 1.33; SID160742409 -0.931; SID160742410 -0.728
ZNF892 (zinc finger protein 892): SID160764753 0.935; SID160764754 2.19; SID160764755 2.57
RNF208 (ring finger protein 208): SID160734228 0.038; SID160771190 -1.06; SID160771192 -0.42
ANXA4 (annexin A4): SID160717813 -0.256; SID160717825 -0.265; SID160717835 -0.55
RASGRP1 (RAS guanyl releasing protein 1): SID160725691 -1.27; SID160725697 -0.124; SID160725702 -0.253
CRK (CRK proto-oncogene, adaptor protein): SID160748241 -0.733; SID160748252 0.0693; SID160748263 0.585
SMG7 (SMG7 nonsense mediated mRNA decay factor): SID160723349 0.332; SID160723350 -2.15; SID160723351 1.1
IRS4 (insulin receptor substrate 4): SID160720114 -1.8; SID160720115 -0.402; SID160720116 -1.19
NOTCH3 (notch receptor 3): SID160778158 -0.0958; SID160778159 1.1; SID160778160 -0.915
ZNF583 (zinc finger protein 583): SID160758609 -0.0745; SID160758610 -0.144; SID160758611 -0.226
THY1 (Thy-1 cell surface antigen): SID160718059 0.514; SID160718060 -0.436; SID160718061 0.449

A run of entries from the list above, as a working copy:
total luciferase, z-score, by target gene and reagent
WSCD2 (WSC domain sialate O sulfotransferase 2): SID160722769 0.101
ATP11B (ATPase phospholipid transporting 11B (putative)): SID160735700 -0.0059; SID160735701 0.132
